Data published in PubChem BioAssay AID1794845 (National Center for Advancing Translational Sciences (NCATS), 2023).
Out of some 6,900 compounds screened, fewer than 10 were called active. The call rests on the fitted dose curve; in most records, active means well fitted curve in the direction sought with a large enough effect; inconclusive means small, poorly fitted or top-dose-only effect, or another doubt; inactive means no such curve, though single readings can be large or run the other way. This is one part of the list.

Chains of the proteins cited; added tags and fusions are not shown. Lines headed by an entry give the natural chain unless they say otherwise; changes in a name come on top.
UniProt C7C422: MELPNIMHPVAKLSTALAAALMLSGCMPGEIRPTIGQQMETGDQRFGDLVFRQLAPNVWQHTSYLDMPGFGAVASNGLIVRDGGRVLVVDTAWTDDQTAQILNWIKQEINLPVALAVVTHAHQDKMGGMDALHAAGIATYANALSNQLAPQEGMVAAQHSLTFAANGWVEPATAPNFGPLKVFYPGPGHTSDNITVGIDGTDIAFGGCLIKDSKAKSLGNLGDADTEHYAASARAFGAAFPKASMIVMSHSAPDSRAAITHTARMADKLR

Molecular target: Metallo-beta-lactamase type 2 (Klebsiella pneumoniae) (UniProt C7C422)
Experiment: qHTS to identify inhibitors of the New Delhi Metallo-beta-lactamase (NDM): primary screen against the NCATS Gemini Collection; further: % of control where 0% means no effect
Settings: NDM-1 enzyme, meropenem hydrolysis, absorbance 300 nm; at 38.4 µM (top of the series) unless noted
Description: Assay Submitter (PI): James Inglese Ph.D., Patricia Dranchak Ph.D., Mahesh Aitha Ph.D. Assay Development and Screening Technology Laboratory (ADST) National Center for Advancing Translational Sciences (NCATS), Rockville, MD National Institute of Health (NIH), Bethesda, Maryland The metallo-beta-lactamases (MBL) are a main antibiotic resistance mechanism evolved by bacteria. There is an urgent clinical need for MBL inhibitors to mitigate this growing threat. To support a machine-based learning study, qHTS has been used to experimentally test inhibitors identified by prediction tools.
PROTOCOL TABLE (as described by Inglese et al., 2007) SEQUENCE No. (e.g., 1, 2, 3, etc.); […] (e.g., enzyme, Incubation, Reagent, etc.); VALUE; DESCRIPTION 1; NDM-1; 4 uL of 3 nM enzyme [2 nM final] in 50 mM HEPES (pH 7.0), 1 uM […], 0.01% Tween20; Use BioRaptr to dispense into Aurora black, clear bottom low base 1536-well plates 2; Compounds; 23 nL; Use Pin Tool (Wako) to transfer DMSO control and library compounds in DMSO 3; Incubate; >30 min 4; Reagent; 2 uL of 150 uM meropenem [50 uM final] 5; Incubate; 30 min. 6; Detector; Absorbance at 300 nm (bandwidth = 5 nm, 25 flashes/well) on Tecan Infinity NOTES (numbers refer to sequence above) 1; Column 1 of each plate received assay buffer without enzyme and columns 2-48 received enzyme for a final assay concentration of 2 nM. 2; Control plate contained DMSO in columns 1, 2, 3, and 4. 3; Compound interaction with enzyme. 4; Meropenem substrate was prepared in the same assay buffer as step 1 for a final assay concentration of 50 uM and added to all wells across the assay plates. 5; Substrate interaction with enzyme, plateau phase of kinetics. 6; Default reader settings were applied for absorbance read at 300 nm, bandwidth = 5 nm, 25 flashes/well. References: Inglese J, Shamu CE, Guy RK. 2007. Reporting data from high-throughput screening of small-molecule libraries. Nat Chem Biol. doi:10.1038/nchembio0807-438 Yasgar A, Shinn P, Jadhav A, Auld D, Michael S, Zheng W, Austin CP, Inglese J, Simeonov A. 2008. Compound Management for Quantitative High-Throughput Screening. J Lab Autom 13:79 - 89. doi:10.1016/j.jala.2007.12.004

Activity % (negative = inhibition), inactive:
Cn1c(COc2cccc(CN3CCCC3)c2Cl)nnc1C1CC(N)C1 (stereo not drawn) -9.84%
O=C1CC2CCN(Cc3coc(-c4ccccc4)n3)CC2CCN1 (stereo not drawn) 1.59%
Cc1cnc(C2CCC2)n1CCC1CCN(C(=O)c2ccc3ccccc3n2)CC1 -1.21%
COc1ccc(C(=O)N2CCOCCNC(=O)[C@H]3CCCC[C@H]32)c(OC)n1 2.89%
O=C(NC1CC1)C1c2ccccc2C(=O)N(C2CCCCC2)C12CCCCC2 (stereo not drawn) 9.96%
CN(CC1CCN(CCc2ccc(Cl)cc2)CC1)C(=O)c1ccccc1C#N 0.591%
O=C(c1ccc(-c2ccco2)cc1)N1CCOC(c2ccccc2)C1 (stereo not drawn) 31.3%
CCCN1CCN(C(=O)C2(c3ccc(NC(=O)C4CC4)cc3)CCCCC2)CC1 -0.352%
COc1ccc(CN2CCC(N3Cc4cccn4C3=O)CC2)cc1 -0.46%
COC(=O)[C@H]1CN(C(=O)NC(C)C)CCN1C(=O)c1cccnc1 0.502% [at 57.5 µM]
CNC(=O)N1C[C@@H](Oc2ccccc2)C[C@H]1C(=O)NCCOC 8.41%
CC(=O)N1CCC(N[C@@H]2C[C@H](Cn3cc(-c4cccnc4)nn3)[C@@H](O)[C@H]2O)CC1 22.8%
CN[C@@H](C)C(=O)N1CC[C@H](NC(=O)Cc2cccs2)C[C@H]1C(=O)N[C@@H](Cc1ccc(OC)cc1)C(N)=O -0.685%
COCCCNc1ccnc(-c2nnc(C)n2-c2ccccc2)c1 8.1% [at 57.5 µM]
CN1C(=O)[C@H]2CN(Cc3cn[nH]c3-c3cccs3)C[C@H]2C1=O 1.58%
Cc1cc(C)n(CCCN(C)C(=O)c2cn(Cc3ccc(F)cc3)nn2)n1 -1.67%
Cc1ncccc1OC1(C(=O)O)CCN(C(=O)Cc2ccn(C)c2)CC1 7.68%
C[S+](=O)([O-])N1CC2(CCN(Cc3ccc(Cl)cc3)C2)Cc2ccccc21 (stereo not drawn) -0.432%
COc1ccc(CCNC(=O)C2(C)CCOCC2)cc1 -3.56% [at 57.5 µM]
CC(=O)N(C)CCc1noc(C2CN(Cc3c(F)cccc3Cl)C2)n1 0.117%
Cc1nn2c(c1-c1ccnn1C(C)C)N(C(=O)COc1ccccc1C(N)=O)CCC2 14.8% [at 57.5 µM]
Cc1cc(C(=O)N[C@@H]2CCC[C@@H](C(=O)NC3CC3)CC(=O)N(C)C2)nn1C 55.1% [at 57.5 µM]
O=C(NC1CCCCCC1)C1CCc2nnc(-c3ccccn3)n21 (stereo not drawn) -3.71% [at 57.5 µM]
Cc1nn(-c2ccccc2)c2c1C(C1CC1)N(C1CCN(Cc3cccc(OC(F)(F)F)c3)CC1)C2=O (stereo not drawn) 10.9%
CC1=NOC2(CCN(Cc3ccc(N(C)C)cc3)C2)C1 (stereo not drawn) 1.08% [at 57.5 µM]
O=C(Nc1ccc(F)cc1)c1c[nH]c2cccnc12 12.9% [at 57.5 µM]
CC(C)(CC(=O)O)CC(=O)N1CCN2C(=O)N(CCc3cccs3)C(=O)[C@H]2C1 14.6% [at 57.5 µM]
Cc1ccccc1CNC[C@H]1Cn2c(-c3ccccc3)cnc2CO1 36% [at 57.5 µM]
COc1cc(C)c(-c2nc(CN3CCOC(CCN)C3)c(C)o2)cc1C (stereo not drawn) -1.12%
CCCCC(=O)N(C)CC1CCOC1 (stereo not drawn) 7.75%
CCc1noc(CN(C(=O)c2oc3ccc(C)cc3c2C)C(C)C)n1 2.78%
COc1ccc2c(c1)c(CN1C[C@@H](CO)[C@H](c3nc(C)no3)C1)cn2C 23.1%
CC(C(=O)Nc1nccs1)N1CCN(c2nccnc2C#N)CC1 (stereo not drawn) 0.485%
O=C(c1cccn1C1CC1)N1C[C@H](CO)C[C@H](CN2CCCC2)C1 0.546%
NC(=O)C1CCN(c2cc(-c3noc([C@@H]4CCCN4Cc4ccc(Cl)cc4)n3)ccn2)CC1 -5.61%
CCC1(N2CCN(S(=O)(=O)c3cccs3)CC2)CCN(S(C)(=O)=O)C1 (stereo not drawn) 0.936%
Cc1ccc(-c2ccnc(N(C)CC3CC(=O)N(C(C)(C)C)C3)n2)c(C)n1 (stereo not drawn) 11.9%
COc1cc(OC)cc(C(=O)NCC2CCCN(Cc3cc4ccccc4o3)C2)c1 (stereo not drawn) -2.54%
CSCC(=O)NCCC[C@H](NC(=O)[C@@H]1[C@@H](NC(=O)NC2CCCCC2)CCN1C(=O)CSC)C(N)=O 4.33%
O=C(c1ccc(-c2noc(C3CC3)n2)cc1)N1CCC2(CCOCC2)CC1 -3.04%
Cc1noc(C)c1[S+](=O)([O-])N1CCCC1C(=O)N1CCC(N2CCCC2=O)CC1 (stereo not drawn) 21.1%
CC(c1ccon1)N(C)C(=O)c1csc2nc(-c3cccc(C(F)(F)F)c3)cn12 (stereo not drawn) 0.813%
COC(=O)[C@@H]1Cc2ncn(Cc3ccc(Cl)cc3)c2CN1Cc1ccc(N(C)C)cc1 0.468%
CC(=O)N1CCC(N[C@@H]2CO[C@H](CNS(C)(=O)=O)[C@H]2O)CC1 0.39% [at 57.5 µM]
Cc1nc(C2CC(O)C2)cc(N2CCC(OCc3cccnc3)CC2)n1 (stereo not drawn) 0.384%
Cc1ccc(C(=O)NCc2nnc3ccc(-c4ccccc4)nn23)s1 4.71%
CN1C(=O)C(CC(=O)N2CC(O)C2)(Cc2ccccc2)c2ccccc21 (stereo not drawn) 0.394%
CN(C)c1cc(N2CCCC(NC(=O)C3CCC3)C2)ncn1 (stereo not drawn) 9.93%
COCCN1C(=O)c2cccn2CC1CNS(=O)(=O)Cc1ccccc1 (stereo not drawn) 5.33%
CC(C)(C)CC(=O)N1CC[C@@H](CC(=O)O)[C@@H](CCN2CCN(c3ccccn3)CC2)C1 19% [at 57.5 µM]
Cc1ncc2c(c1CNC(=O)Cc1ccsc1)CCN(C(=O)Cc1ccc(F)c(F)c1)C2 14.5%
O=C(NC1CC1)c1nc2sccn2c1-c1ccc(C(F)(F)F)cc1 6.68%
Cc1ccc(-n2cccc2CC(=O)N2CCOCC2)cc1 12%

Ordered by formula weight (low to high): part of the list above.
Activity % (negative = inhibition), inactive:
CN(C)c1cc(N2CCCC(NC(=O)C3CCC3)C2)ncn1 (stereo not drawn) 9.93%
O=C(NC1CC1)c1nc2sccn2c1-c1ccc(C(F)(F)F)cc1 6.68%
COc1cc(C)c(-c2nc(CN3CCOC(CCN)C3)c(C)o2)cc1C (stereo not drawn) -1.12%
Cc1ncc2c(c1CNC(=O)Cc1ccsc1)CCN(C(=O)Cc1ccc(F)c(F)c1)C2 14.5%
